# Where “and” joins values, the source holds several entries; their conditions need not be identical. Equal entries are not always repeated. The list shows a part of the results. The main result of the screen is listed elsewhere. These columns were measured beside it and carry no call. Compounds called inactive in the main read-out are mostly missing here. The note in brackets gives the kind of curve behind each potency; many fits are weak.
# Assay: qHTS Assay for Modulators of Lamin A Splicing
# Details: HeLa LMNA splicing GFP/RFP minigene ratio, 48 h
# Method in brief: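 Read-out is the ratio of GFP to DsRed2 object intensity, acquired by 488 nm laser-scanning cytometry on HeLa lamin A-EGFP minigene reporter cells. Compound incubation 48 hrs at 37 °C in Opti-MEM with 2% FBS; DMSO 0.5% final.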
# [1] = measured here: GFP splicing reporter channel
# [2] = measured here: RFP viability control channel
SMILES,AC50 [1],AC50 [2]
Cn1c(C(=O)NCCCN2CCCCC2)cc2sccc21,"1.41 µM [rising, partial curve]",
CCOc1ccc(OCC)c(NS(=O)(=O)c2c(C(=O)N3CCCCCC3)c(C)n(C)c2C)c1,"6.31 µM [falling, partial curve, poor fit]","3.16 µM [falling, partial curve, poor fit]"
Cc1ccc(NC(=O)N2CCN(c3nnc(C)c4c(C)n(-c5ccccc5)nc34)CC2)cc1Cl,"1 µM [falling, partial curve, poor fit]","0.224 µM [falling, full curve, poor fit]"
CCOCCCn1c(SCC(=O)Nc2cccc(OC)c2)nc2ccccc2c1=O,,"1.78 µM [falling, full curve, poor fit]"
Nc1ccc(N2CCN(c3cccc(Cl)c3)CC2)cc1,,"8.91 µM [rising, partial curve]"
CN(C)C/C=C(/c1ccc(Br)cc1)c1cccnc1,"5.62 µM [rising, single point]",
CCC(CC)=NNC(=O)c1ccccc1OCc1ccc(F)cc1,,"25.1 µM [rising, single point]"
O=C(Nc1cccc(S(=O)(=O)Nc2ccccc2Cl)c1)c1ccc(Cl)nc1,"0.0316 µM [rising, full curve, poor fit]","1.58 µM [rising, full curve]"
COC(=O)Nc1ccc(S(=O)(=O)N2CCCc3ccccc32)cc1,,"0.794 µM [rising, full curve]"
Cc1ccc(NC(=O)CN(C)C(=O)CSc2nc3ccccc3c(=O)n2Cc2ccco2)cc1,"31.6 µM [rising, single point]",
Cc1cc(N)ccc1-n1c(C)ccc1C,,"3.98 µM [falling, partial curve]"
CCN(c1ccc(Cl)cc1)S(=O)(=O)c1nnc(NC(=O)C2CCCCC2)s1,"0.00447 µM [falling, full curve, poor fit]",
CNc1oc(Cc2ccccc2)nc1S(=O)(=O)c1ccc(Cl)cc1,,"1.41 µM [falling, partial curve]"
CC(=O)c1ccc(N2CCN(C(=S)Nc3ccc(Oc4ccccc4)cc3)CC2)cc1,"10 µM [falling, partial curve]",
COc1ccc(CN(C(=S)Nc2ccccc2)C2CC(=O)N(c3ccc(F)cc3)C2=O)cc1 (centres undefined),"31.6 µM [rising, single point]","31.6 µM [rising, single point]"
CN(C)S(=O)(=O)c1ccc(NC(=O)CSc2ncnc3ccccc23)cc1,,"14.1 µM [rising, partial curve]"
CCCC(=O)O[C@]1(C(=O)CCl)[C@@H](C)C[C@H]2[C@@H]3CCC4=CC(=O)C=C[C@]4(C)[C@@]3(F)C(=O)C[C@@]21C,,"31.6 µM [rising, single point]"
C=C(C)C1CC=C(C)/C(=N/NC(=O)COc2cccc(C)c2)C1 (centres undefined),"28.2 µM [rising, single point]","15.8 µM [rising, partial curve, poor fit]"
COc1ccc(CN2CCN(Cc3ccccc3)C(CCO)C2)cc1OC (centres undefined),"31.6 µM [falling, single point]","12.6 µM [falling, partial curve, poor fit]"
C=C(C)COc1ccc2c(C)c(CC(=O)OC)c(=O)oc2c1C,,"11.2 µM [rising, partial curve]"
C/C=C/C=C/C(=O)O,"0.224 µM [falling, partial curve, poor fit]",
Cc1cc(O)c(C2=Nc3ccccc3SC(c3ccc(Cl)cc3)C2)c(=O)o1 (centres undefined),,"14.1 µM [rising, partial curve]"
Cc1cc(=O)oc2cc(Oc3ccc([N+](=O)[O-])cc3[N+](=O)[O-])ccc12,"7.08 µM [falling, single point]","14.1 µM [falling, single point]"
COc1cc2c(cc1OC)C(C)N(C(=O)c1cc3c(s1)-c1ccccc1OC3)CC2 (centres undefined),"7.94 µM [rising, partial curve]","11.2 µM [rising, partial curve]"
CCOc1ccc2ccccc2c1C(=O)N[C@@H]1C(=O)N2[C@@H]1SC(C)(C)[C@@H]2C(=O)O,"1 µM [falling, partial curve] and 3.16 µM [falling, partial curve]","2.24 µM [falling, partial curve]"
c1ccc2c(c1)ncn2CCCOc1ccc2c(c1)CCC2,"25.1 µM [rising, single point]","31.6 µM [rising, single point]"

# Retrieved by compound from the list above, two records:
SMILES,AC50 [1],AC50 [2]
Cc1ccc(NC(=O)CN(C)C(=O)CSc2nc3ccccc3c(=O)n2Cc2ccco2)cc1,"31.6 µM [rising, single point]",
Cc1cc(N)ccc1-n1c(C)ccc1C,,"3.98 µM [falling, partial curve]"

# More compounds

SMILES,AC50 [1],AC50 [2]
CC1CN(c2nc3ccccc3cc2-c2ccccc2)CC(C)O1 (centres undefined),,"35.5 µM [rising, partial curve]"
COc1ccc(-c2nn(CC(=O)Nc3ccccc3F)c3c2cnc2ccc(F)cc23)cc1,"7.94 µM [falling, partial curve, poor fit]","1.78 µM [falling, full curve, poor fit]"
COc1ccc(C2C(=O)N(C3CCCCC3)CC(=O)N2Cc2ccccc2Cl)cc1OC (centres undefined),"0.02 µM [falling, full curve]","0.0251 µM [falling, full curve]"
Cc1csc(NC(=O)c2ccc3c(=O)n4c(nc3c2)CCCCC4)n1,,"20 µM [rising, partial curve, poor fit]"
CNC(=S)/N=C/NOCc1c(Cl)cccc1Cl,"0.02 µM [rising, full curve, poor fit]",
Cn1c(=O)c2c(nc(SCCN3CCCCC3)n2C)n(C)c1=O,,"0.0562 µM [falling, full curve, poor fit]"
COc1ccc(CNc2nc(-c3cccc(NS(C)(=O)=O)c3)nc3ccccc23)c(OC)c1,"15.8 µM [falling, partial curve, poor fit]","14.1 µM [falling, single point]"
O=C(Nc1ccc(N2CCN(C(=O)c3ccc(Cl)cc3)CC2)cc1)c1ccc(Br)o1,,"31.6 µM [rising, single point]"
CCN(CC)CCNC(=O)c1cc(Cl)c(N)cc1OC,,"7.08 nM [rising, full curve, poor fit] and 35.5 µM [falling, single point]"
O=S(=O)(c1cccs1)N1CCN(C/C=C/c2ccccc2)CC1,,"11.2 µM [rising, partial curve, poor fit]"
CCOc1ccc(C2C(=O)N(C3CCCCCC3)CC(=O)N2CCc2ccccc2)cc1OC (centres undefined),"0.0562 µM [falling, full curve]","0.01 µM [falling, full curve]"
Cc1ccccc1CNc1nnnn1C,,"1.26 µM [rising, full curve, poor fit]"
NCCCNCCCCNCCCN,"0.0794 µM [rising, full curve, poor fit]",
NS(=O)(=O)c1ccc(N/N=C2/CCCCC2C2CCCCC2)c([N+](=O)[O-])c1 (centres undefined),"31.6 µM [falling, partial curve]","25.1 µM [falling, partial curve]"
COc1cc(SC#N)ccc1N=Cc1c(C)[nH]n(-c2ccc(C)cc2)c1=O,"35.5 µM [falling, single point]","17.8 µM [falling, single point]"
Cc1ccc(-n2c(SCC(=O)NC3CCS(=O)(=O)C3)nc3ccccc3c2=O)cc1 (centres undefined),"14.1 µM [rising, partial curve]",
Cc1cc(O)cc2c(=O)c3ccccc3sc12,"0.316 µM [falling, partial curve, poor fit]","0.0891 µM [falling, full curve, poor fit]"
CCc1ccc(/C=C2\Oc3cc(OC(=O)N4CCOCC4)ccc3C2=O)cc1,,"15.8 µM [rising, single point]"
CCOc1ccc(NC(=O)C(=O)NCCc2csc3nc(-c4ccccc4F)nn23)cc1,"0.0708 µM [falling, full curve, poor fit]","0.447 µM [falling, partial curve, poor fit]"
Cc1cc2nc(Sc3c([N+](=O)[O-])nc(C)n3Cc3ccccc3)[nH]c2cc1C,"22.4 µM [falling, partial curve]","35.5 µM [falling, single point]"
CCOc1ccc(/C=N/OCC(=O)NC(c2ccccc2)c2ccccc2)cc1,"11.2 µM [rising, partial curve, poor fit]","14.1 µM [rising, partial curve]"
CCC1CCCCN1C(=O)CSc1nc2c([nH]c3ccccc32)c(=O)n1-c1cccc(OC)c1 (centres undefined),,"35.5 µM [rising, single point]"
COc1ccccc1CNC(=O)CSc1nnc2ccc(-c3cccnc3)nn12,,"4.47 µM [falling, partial curve]"
Cc1cc(Cl)c(S(=O)(=O)Nc2ccc3c(c2)OCCO3)cc1OCC(=O)NC1CCCCC1,,"31.6 µM [rising, single point]"
COc1ccc(NC(=O)c2ccc(-c3ccccc3C(F)(F)F)o2)cc1,"12.6 µM [rising, single point]","17.8 µM [rising, partial curve]"
COC(=O)c1ccc(-c2noc(CN(Cc3ccncc3)CC3CCCO3)n2)cc1 (centres undefined),"35.5 µM [falling, single point]","6.31 µM [falling, partial curve, poor fit]"
